Test results published in publication PMC4538836.
For at least one entry, the source does not settle the construct or the ends of the probe. No signal at the amounts used counts as a negative. At least one verdict rests on a figure or table, not on a statement of the authors.

Test system: ΔZnF LigIII + ΔOBD LigIII
Test: TR-FRET
Settings: 50:50 mixture, bridging read-out only, end type not stated; 50 mM HEPES-NaOH pH 7.5, 80 mM NaCl, 5 mM MgCl2, 1 mM DTT, 1 mM ATP, 50 ug/ml BSA; anisotropy 25 C (25 nM DNA), TR-FRET room temperature, pull-down 4 C; recombinant protein; protein details: N-terminal His (pET28a),C-terminal His (pET28a)

AGTGAATTCGAGCTCG / AATCGAGCTCGCAATTCACT / CATGATTACGG / ATTCCGTAATCATG [bridged pair, complementary 3-nt overhangs]
binding result: no binding
